# Assay results reported in US11566062B2, “Methods for modulating protein mannosylation profiles using maduramycin, narasin, or salinomycin” (ARES TRADING S.A., priority 2017, dated 2023).
# Some entries share one result that the patent states for a list of compounds. Some compounds share one range, which may span the group rather than tell each member.
# Test system: mannosylation level of mAb1
# Experiment: Glycosylation (mannosylation) profile of mAb1 by 2AB-UPLC
# Type: cell-based, Chinese hamster
# Protocol: All assays were performed in fed-batch culture. A serum-free chemically defined culture medium was used. It was used as it is, or it was supplemented with polyether ionophore compounds (maduramycin, narasin, salinomycin and lasalocid were all purchased from Sigma-Aldrich) at the desired concentrations. The culture medium was fed, on a regular basis, with a chemically defined feed medium, as well as with glucose in order to keep said glucose level in the range of >0 to about 8 g/L (feeds were done at days 3, 5, 7, 10 and additional glucose feed at day 12).
# For examples 2 and 3, cultures were performed in Ambr®15 with a working volume of 14 mL (36.5° C., Dissolved Oxygen 40%, 0.1 ml/min N2, pH range: 6.75-7.15, 800 rpm). A temperature shift was performed at day 6 for the cells expressing mAb1. Further conditions are mentioned in Table 2.
# Glycosylation profiles were established either by Ultra Performance Liquid Chromatography-2-amino-benzamide labelling technique (2AB-UPLC; mAb1) or by mass spectroscopy (MS; mAB2). Groups of glycans were defined in Table 1.
# The cells were cultivated and the results analysed as disclosed in the material and method section.
compound,measurement,setting,value
"CC[C@@H](C(=O)O)[C@@H]1O[C@@H]([C@@H](C)[C@H](O)[C@H](C)C(=O)[C@H](CC)[C@H]2O[C@]3(C=C[C@@H](O)[C@]4(CC[C@@](C)([C@H]5CC[C@](O)(CC)[C@H](C)O5)O4)O3)[C@H](C)C[C@@H]2C)[C@@H](C)C[C@@H]1C [narasin, Narasin]",increase of afucoslyated glycoforms,data non shown,1-2%
same,decrease of the level of fucosylated glycoforms,not shown,3 to 40%
